Assay results from article doi:10.1101/481507.
These are yes or no findings as the source states them, for the method shown. Binding seen in cells or lysates may run through a third protein.

Chains of the proteins cited; added tags and fusions are not shown. Lines headed by an entry give the natural chain unless they say otherwise; changes in a name come on top.
UniProt P29352: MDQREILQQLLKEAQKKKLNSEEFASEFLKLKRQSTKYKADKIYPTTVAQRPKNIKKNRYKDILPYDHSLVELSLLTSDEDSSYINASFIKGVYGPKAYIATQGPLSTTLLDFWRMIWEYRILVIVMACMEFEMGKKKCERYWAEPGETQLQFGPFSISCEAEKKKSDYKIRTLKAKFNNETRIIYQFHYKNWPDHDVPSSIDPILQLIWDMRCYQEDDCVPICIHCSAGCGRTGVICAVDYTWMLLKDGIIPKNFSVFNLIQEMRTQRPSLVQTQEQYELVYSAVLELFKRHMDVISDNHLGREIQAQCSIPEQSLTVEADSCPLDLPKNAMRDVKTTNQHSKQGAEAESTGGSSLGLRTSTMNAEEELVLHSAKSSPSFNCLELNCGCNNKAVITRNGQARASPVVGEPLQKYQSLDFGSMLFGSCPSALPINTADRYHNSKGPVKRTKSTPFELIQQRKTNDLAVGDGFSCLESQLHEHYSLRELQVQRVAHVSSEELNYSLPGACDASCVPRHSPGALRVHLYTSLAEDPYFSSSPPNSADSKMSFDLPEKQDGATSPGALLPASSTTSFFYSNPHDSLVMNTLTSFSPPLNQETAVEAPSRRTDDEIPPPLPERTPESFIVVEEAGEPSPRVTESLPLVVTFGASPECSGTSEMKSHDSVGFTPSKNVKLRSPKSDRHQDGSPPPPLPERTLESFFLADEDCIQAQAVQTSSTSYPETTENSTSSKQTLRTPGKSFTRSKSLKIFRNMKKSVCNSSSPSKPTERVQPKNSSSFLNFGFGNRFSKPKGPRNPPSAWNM
UniProt Q15691: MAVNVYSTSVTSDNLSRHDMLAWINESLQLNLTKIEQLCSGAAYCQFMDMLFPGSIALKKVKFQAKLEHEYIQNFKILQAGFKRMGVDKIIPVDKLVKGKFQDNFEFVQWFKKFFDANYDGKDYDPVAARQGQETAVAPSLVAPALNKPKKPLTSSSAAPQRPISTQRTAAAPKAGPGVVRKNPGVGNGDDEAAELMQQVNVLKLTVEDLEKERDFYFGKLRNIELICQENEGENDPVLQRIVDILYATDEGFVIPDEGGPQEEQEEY

Target: PTPN22-Flag ΔP1 (UniProt P29352)
Experiment: co-IP

binding: no binding
Substance: endogenous EB1 (human cells) (from UniProt Q15691 1-268)
